Test results reported in publication PMC6394298.

Chains of the proteins cited; added tags and fusions are not shown. Lines headed by an entry give the natural chain unless they say otherwise; changes in a name come on top. A line that says so, or that is headed by a name, gives the form on record, which may keep a tag or linker.
His6-tagged wild-type paxillin (mouse paxillin-α) (Q8VI36, form named): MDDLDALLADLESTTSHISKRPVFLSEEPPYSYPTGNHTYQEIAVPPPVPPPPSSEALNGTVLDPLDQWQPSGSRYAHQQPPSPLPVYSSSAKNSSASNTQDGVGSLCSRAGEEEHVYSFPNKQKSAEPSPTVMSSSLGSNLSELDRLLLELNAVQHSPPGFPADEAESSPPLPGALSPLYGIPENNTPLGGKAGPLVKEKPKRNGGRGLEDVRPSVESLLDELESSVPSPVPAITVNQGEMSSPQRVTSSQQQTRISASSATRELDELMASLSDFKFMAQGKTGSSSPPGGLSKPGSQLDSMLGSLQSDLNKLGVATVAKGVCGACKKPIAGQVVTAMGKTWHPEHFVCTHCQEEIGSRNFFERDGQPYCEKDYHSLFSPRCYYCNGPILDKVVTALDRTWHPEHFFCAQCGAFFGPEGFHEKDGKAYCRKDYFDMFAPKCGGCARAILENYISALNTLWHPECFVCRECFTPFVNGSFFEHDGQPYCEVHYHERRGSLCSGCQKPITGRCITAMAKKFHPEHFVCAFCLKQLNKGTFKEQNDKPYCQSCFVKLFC
UniProt Q62441: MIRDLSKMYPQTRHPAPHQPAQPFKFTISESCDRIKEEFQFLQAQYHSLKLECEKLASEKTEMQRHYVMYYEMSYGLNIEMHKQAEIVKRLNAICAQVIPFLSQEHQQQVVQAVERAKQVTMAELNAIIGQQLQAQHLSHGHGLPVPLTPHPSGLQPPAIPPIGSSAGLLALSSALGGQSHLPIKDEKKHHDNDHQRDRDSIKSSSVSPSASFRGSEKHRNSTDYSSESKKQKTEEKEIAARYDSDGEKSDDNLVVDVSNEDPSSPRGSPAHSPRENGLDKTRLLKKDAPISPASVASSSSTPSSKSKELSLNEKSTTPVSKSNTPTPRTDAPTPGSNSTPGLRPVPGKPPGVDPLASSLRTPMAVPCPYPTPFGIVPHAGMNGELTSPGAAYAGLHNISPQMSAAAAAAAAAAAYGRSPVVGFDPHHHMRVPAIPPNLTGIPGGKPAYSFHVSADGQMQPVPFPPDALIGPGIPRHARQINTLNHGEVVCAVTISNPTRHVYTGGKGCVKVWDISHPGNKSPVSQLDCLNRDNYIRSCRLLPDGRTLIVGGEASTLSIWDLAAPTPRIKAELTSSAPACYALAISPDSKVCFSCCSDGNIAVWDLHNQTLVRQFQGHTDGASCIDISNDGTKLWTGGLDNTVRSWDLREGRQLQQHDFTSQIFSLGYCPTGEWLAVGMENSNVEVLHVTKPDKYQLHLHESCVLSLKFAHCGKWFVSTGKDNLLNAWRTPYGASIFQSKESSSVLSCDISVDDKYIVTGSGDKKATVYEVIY
UniProt Q6NV83: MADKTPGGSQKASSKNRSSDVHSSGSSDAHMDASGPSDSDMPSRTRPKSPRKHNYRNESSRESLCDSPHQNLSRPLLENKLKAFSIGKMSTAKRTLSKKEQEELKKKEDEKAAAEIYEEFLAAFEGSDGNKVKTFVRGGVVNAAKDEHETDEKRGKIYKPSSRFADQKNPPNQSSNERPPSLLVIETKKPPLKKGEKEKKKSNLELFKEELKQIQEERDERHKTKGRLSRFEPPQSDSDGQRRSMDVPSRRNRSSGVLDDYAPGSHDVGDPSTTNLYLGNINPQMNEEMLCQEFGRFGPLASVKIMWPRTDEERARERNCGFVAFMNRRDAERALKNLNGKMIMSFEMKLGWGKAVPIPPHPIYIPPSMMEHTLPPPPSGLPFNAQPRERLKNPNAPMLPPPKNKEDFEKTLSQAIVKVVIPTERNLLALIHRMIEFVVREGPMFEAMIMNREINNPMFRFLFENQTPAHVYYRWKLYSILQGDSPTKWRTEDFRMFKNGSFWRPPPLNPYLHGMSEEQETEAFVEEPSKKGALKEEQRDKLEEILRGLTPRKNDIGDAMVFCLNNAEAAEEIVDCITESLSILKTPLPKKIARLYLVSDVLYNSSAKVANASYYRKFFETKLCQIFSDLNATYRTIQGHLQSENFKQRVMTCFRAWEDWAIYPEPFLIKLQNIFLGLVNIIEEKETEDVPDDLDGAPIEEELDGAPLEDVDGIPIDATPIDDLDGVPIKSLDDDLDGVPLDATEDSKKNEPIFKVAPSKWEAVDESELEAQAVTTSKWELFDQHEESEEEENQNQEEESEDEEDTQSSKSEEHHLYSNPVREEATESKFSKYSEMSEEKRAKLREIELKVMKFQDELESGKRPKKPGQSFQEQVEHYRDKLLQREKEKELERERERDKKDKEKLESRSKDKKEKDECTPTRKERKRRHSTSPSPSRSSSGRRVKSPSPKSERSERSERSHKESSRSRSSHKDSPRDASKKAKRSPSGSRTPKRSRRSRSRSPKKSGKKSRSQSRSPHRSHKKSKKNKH

B1: ATP-dependent RNA helicase DDX42 (protein, UniProt Q810A7 1-929)
chain: MNWNKGGPGTKRGFGFGGFAISAGKKEEAKLPQQSHSAFGAASSSSGFGKSAPPQLPSFYKIGSKRANFDEENAYFEDEEEDSSNVDLPYIPAENSPTRQQFHSKPADSDSDDDPLEAFMAEVEDQAARDMKRLEEKDKERKNVKGIRDDIEEEDDQEAYFRYMAENPTAGVVQEEEEDNLEYDSDGNPIAPSKKIIDPLPPIDHSEIDYPPFEKNFYNEHEEITNLTPQQLIDLRHKLNLRVSGAAPPRPGSSFAHFGFDEQLMHQIRKSEYTQPTPIQCQGVPVALSGRDMIGIAKTGSGKTAAFIWPMLIHIMDQKELEPGDGPIAVIVCPTRELCQQIHAECKRFGKAYNLRSVAVYGGGSMWEQAKALQEGAEIVVCTPGRLIDHVKKKATNLQRVSYLVFDEADRMFDMGFEYQVRSIASHVRPDRQTLLFSATFRKKIEKLARDILIDPIRVVQGDIGEANEDVTQIVEILHSGPSKWNWLTRRLVEFTSSGSVLLFVTKKANAEELASNLKQEGHNLGLLHGDMDQSERNKVISDFKKKDIPVLVATDVAARGLDIPSIKTVINYDVARDIDTHTHRIGRTGRAGEKGVAYTLLTPKDSNFAGDLVRNLEGANQHVSKELLDLAMQNAWFRKSRFKGGKGKKLNIGGGGLGYRERPGLGSENSDRGNNNNVMSNYEAYKPSTGAMGDRLTAMKAAFQSQYKSHFVAASLSNQKAGTSSAGASGWTSAGSLNSVPTNSAQQGHNSPDNPMTSSTKNIPGFNNSGNISSAPVTYPSIGAQGVNNTASGNNSREGIGGGNGKRERYTENRGGSRHSHGDGGNRHGDGGRHGDGYRYPESGSRHTDGHRHGETRHGGSAGRHGESRGANDGRNGESRKEGFNRENKMDPKVDSSRMDKVDSKTDKTPDGFAVPEPPKRKKSRWDS
B2: ARF GTPase-activating protein GIT1 (protein, UniProt Q68FF6 1-770)
chain: MSRKGPRAEVCADCSAPDPGWASISRGVLVCDECCSVHRSLGRHISIVKHLRHSAWPPTLLQMVHTLASNGANSIWEHSLLDPAQVQSGRRKANPQDKVHPIKSEFIRAKYQMLAFVHKLPCRDDDGVTAKDLSKQLHSSVRTGNLETCLRLLSLGAQANFFHPEKGTTPLHVAAKAGQTLQAELLVVYGADPGSPDVNGRTPIDYARQAGHHELAERLVECQYELTDRLAFYLCGRKPDHKNGHYIIPQMADRSRQKCMSQSLDLSELAKAAKKKLQALSNRLFEELAMDVYDEVDRRENDAVWLATQNHSTLVTERSAVPFLPVNPEYSATRNQGRQKLARFNAREFATLIIDILSEAKRRQQGKSLSSPTDNLELSARSQSELDDQHDYDSVASDEDTDQEPLPSAGATRNNRARSMDSSDLSDGAVTLQEYLELKKALATSEAKVQQLMKVNSSLSDELRRLQREIHKLQAENLQLRQPPGPVPPPSLPSERAEHTLMGPGGSTHRRDRQAFSMYEPGSALKPFGGTPGDELATRLQPFHSTELEDDAIYSVHVPAGLYRIRKGVSASSVPFTPSSPLLSCSQEGSRHASKLSRHGSGADSDYENTQSGDPLLGLEGKRFLELSKEDELHPELESLDGDLDPGLPSTEDVILKTEQVTKNIQELLRAAQEFKHDSFVPCSEKIHLAVTEMASLFPKRPALEPVRSSLRLLNASAYRLQSECRKTVPPEPGAPVDFQLLTQQVIQCAYDIAKAAKQLVTITTREKKQ
B3: ARF GTPase-activating protein GIT2 (accession Q9JLQ2) (protein, UniProt Q9JLQ2 1-708)
chain: MSKRLRSSDVCADCNGPDPSWASVNRGTFICDECCSVHRSLGRHISQVRHLKHTAWPPTLLQMVETLYNNGANSIWEHSLLDPASIMSGRRKANPQDKVHPNKAEFIRAKYQMLAFVHRLPCREDDSVTAKDLSKQLHSSVRTGNLETCLRLLSLGAQANFFHPEKGSTPLHVASKAGQILQAELLAVYGADPGTQDSSGKTPVDYARQGGHHELAERLIEIQYELTDRLAFYLCGRKPDHKSGQHFLIPQRADSLDLSELAKAAKKKLQSLSNHLFEELAMDVYDEVDRRETDAVWLATQNHSTLVTETTVVPFLPVNPEYSSTRNQGRQKLARFNAHEFATLVIDILSDAKRRQQGSPLSRSKDNVELILRTVSTQHSTESQDNDQPDYDSVASDEDTDVETRASKANRQKLQTLQSENSSLRRQATASACQVQTGSDHKDTASHSSLKRRPSARGSRPMSMYETGSGQKPYLPMGEASHPEESRTRLQPFPTHIGRSALVTSSSSLPSFPSTLSWSRDESARRASRLEKQNSTPESDYDNTACDPEPDDTGSTRKGRQRSMLWQGDGLLPDTAEPHSVPSPTLPSTEDVIRKTEQITKNIQELLRAAQENKHDSYIPCSERIHVAVTEMAALFPKKPKSDTVRTSLRLLTSSAYRLQSECRKALPGDSSLPTDVQLVTQQVIQCAYDIAKAAKQLVTITTKENSS
B4: Alpha-Pix (protein, UniProt Q8K4I3 1-771)
chain: MNPEERLVTWLISLGVLESPKKTVCDPEEFLKSSLKNGVVLCKLINRLLPGSVEKYCLEPQTEADCIDNINDFLKGCATLQVEVFEPDDLYSGANFSKVLNTLLAVNKATEDQLSERPCGRSSSLSAATSSQTNPQVAVPSTAPEQHSEEKAEMTENGSHQLIVKARFNFKQTNEDELSVCKGDIIYVTRVEEGGWWEGTLNGRTGWFPSNYVREIKPSERPLSPKAIKGFDTAPLTKNYYTVVLQNILDTEKEYAKELQSLLVTYLRPLQSNNNLSTVEFTCLLGNFEEVCTFQQTLCQALEECSKFPENQHKVGGCLLNLMPHFKSMYLAYCANHPSAVNVLTQHSDDLERFMENQGASSPGILILTTSLSKPFMRLEKYVTLLQELERHMEDTHPDHQDILKAIIAFKTLMGQCQDLRKRKQLELQILSEPIQAWEGDDIKTLGNVIFMSQVVMQHGACEEKEERYFLLFSSVLIMLSASPRMSGFMYQGKIPIAGMVVNRLDEIEGSDCMFEITGSTVERIVVHCNNNQDFQEWMEQLNRLTKGPTSCGSLSKTSSSSCSTHSSFSSTGQPRGPLEPPQIIKPWSLSCLRPAPPLRPSAALGYKERMSYILKESSKSPKTMKKFLHKRKTERKASEEEYVIRKSTAALEEDAQILKVIEAYCTSASFQQGTRKDSVPQVLLPEEEKLIIEETRSNGQTIIEEKSLVDTVYALKDEVKELKQENKKMKQCLEEELKSRKDLEKLVRKLLKQTDECIRSESSSKTSILQ

Target: His6-tagged wild-type paxillin (mouse paxillin-α) (mouse) (UniProt Q8VI36)
Test: affinity purification with mass spectrometry; His6-tagged wild-type paxillin pulled down from Ba/F3 lysate (1 mg protein) with Ni-NTA beads, 30 min at 4°C; lysis buffer 20 mM imidazole-HCl pH 7.4, 130 mM NaCl, 0.05% Tween-20; one wash with 2 M urea; eluted with 150 mM imidazole; 8% SDS-PAGE, silver stain, bands of two regions cut out, LC-MS; mock-transfected cells as control

Molecule	binding
MKIAA1261 protein (Transducin-like enhancer protein 4) (from UniProt Q62441 1-773)	binds
U2-associated protein SR140 (from UniProt Q6NV83 1-1029)	binds
B1	binds
B2	binds
B3	binds
B4	binds

No constants are given. Whether binding was seen depends on the method and setting. In cells and extracts the contact can be indirect. Here binding means that the protein was enriched with, or labelled near, the bait; the list need not be complete.
